Assay results as given in article PMC11388081.

Protein sequences, listed by entry. Tags and fused reporters are not part of them. Lines headed by an entry give the natural chain unless they say otherwise; changes in a name come on top.
UniProt P11717: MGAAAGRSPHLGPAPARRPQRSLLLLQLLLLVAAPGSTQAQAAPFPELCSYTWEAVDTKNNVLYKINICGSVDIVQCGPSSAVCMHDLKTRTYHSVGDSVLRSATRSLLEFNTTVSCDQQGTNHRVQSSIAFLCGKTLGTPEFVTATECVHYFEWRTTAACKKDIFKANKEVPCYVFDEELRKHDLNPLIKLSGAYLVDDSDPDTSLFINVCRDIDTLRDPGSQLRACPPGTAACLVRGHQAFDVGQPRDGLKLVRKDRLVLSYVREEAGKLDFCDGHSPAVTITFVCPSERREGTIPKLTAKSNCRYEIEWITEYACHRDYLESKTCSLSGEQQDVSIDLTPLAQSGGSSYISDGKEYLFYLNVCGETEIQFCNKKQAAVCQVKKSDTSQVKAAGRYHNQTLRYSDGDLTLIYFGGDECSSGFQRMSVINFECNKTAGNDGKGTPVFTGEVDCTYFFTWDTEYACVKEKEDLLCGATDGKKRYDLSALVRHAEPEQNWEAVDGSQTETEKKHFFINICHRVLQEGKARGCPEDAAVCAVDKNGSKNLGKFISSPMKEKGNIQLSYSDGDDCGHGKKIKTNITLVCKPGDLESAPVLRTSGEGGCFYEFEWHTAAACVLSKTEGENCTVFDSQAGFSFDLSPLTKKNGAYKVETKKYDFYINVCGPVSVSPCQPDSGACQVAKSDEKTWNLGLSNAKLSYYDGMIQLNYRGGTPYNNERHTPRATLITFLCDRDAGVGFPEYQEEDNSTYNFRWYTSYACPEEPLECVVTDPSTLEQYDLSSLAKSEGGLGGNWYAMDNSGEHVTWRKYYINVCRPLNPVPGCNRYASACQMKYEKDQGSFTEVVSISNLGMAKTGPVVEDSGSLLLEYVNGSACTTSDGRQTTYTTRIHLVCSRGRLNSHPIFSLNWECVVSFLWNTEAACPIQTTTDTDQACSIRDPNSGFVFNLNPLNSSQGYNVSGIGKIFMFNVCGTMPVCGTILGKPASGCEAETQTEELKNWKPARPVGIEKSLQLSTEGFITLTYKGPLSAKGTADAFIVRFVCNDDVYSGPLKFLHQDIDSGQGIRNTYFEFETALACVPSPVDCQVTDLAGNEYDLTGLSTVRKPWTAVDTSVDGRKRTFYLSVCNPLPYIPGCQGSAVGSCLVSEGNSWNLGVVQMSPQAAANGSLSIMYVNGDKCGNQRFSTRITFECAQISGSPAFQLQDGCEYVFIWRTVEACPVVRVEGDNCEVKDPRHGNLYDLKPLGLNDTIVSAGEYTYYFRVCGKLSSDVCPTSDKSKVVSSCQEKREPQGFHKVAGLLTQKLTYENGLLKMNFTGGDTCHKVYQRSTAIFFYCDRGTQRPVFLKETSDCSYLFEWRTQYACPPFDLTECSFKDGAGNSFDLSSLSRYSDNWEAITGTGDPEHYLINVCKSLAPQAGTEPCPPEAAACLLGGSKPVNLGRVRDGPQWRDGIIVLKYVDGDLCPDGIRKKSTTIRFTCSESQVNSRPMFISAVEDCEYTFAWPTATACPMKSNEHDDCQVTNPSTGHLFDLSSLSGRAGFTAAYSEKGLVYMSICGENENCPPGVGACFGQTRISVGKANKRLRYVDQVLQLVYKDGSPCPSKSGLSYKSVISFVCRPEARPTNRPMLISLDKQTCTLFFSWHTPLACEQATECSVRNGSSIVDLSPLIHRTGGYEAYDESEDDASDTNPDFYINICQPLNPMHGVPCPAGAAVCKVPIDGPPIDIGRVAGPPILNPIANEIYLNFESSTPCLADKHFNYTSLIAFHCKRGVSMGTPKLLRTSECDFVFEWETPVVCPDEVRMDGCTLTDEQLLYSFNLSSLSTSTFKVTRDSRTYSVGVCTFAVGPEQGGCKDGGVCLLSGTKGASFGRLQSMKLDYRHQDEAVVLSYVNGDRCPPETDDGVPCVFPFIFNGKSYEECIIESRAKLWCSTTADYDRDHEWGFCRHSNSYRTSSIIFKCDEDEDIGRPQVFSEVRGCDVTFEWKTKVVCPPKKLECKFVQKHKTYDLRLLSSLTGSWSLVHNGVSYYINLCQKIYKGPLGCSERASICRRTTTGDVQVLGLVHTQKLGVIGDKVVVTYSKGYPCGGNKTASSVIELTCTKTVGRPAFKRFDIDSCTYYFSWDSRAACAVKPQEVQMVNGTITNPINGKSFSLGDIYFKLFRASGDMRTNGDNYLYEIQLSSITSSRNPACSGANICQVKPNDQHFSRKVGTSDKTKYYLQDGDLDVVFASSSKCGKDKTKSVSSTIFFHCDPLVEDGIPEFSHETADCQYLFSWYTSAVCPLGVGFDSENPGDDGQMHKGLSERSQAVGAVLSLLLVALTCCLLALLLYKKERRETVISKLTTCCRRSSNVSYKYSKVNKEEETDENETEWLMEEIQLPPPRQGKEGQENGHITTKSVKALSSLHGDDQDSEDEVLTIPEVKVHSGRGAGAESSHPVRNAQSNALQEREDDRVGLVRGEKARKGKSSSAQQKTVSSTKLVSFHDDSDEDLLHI

Experiments:
[1] = tested on: VEGF (cell lysate); experiment: streptavidin pull-down; details: DPBS-Mg buffer; 5'-phosphate on strand 1 (T4 DNA ligase step stated); pulldown: cell lysate with LYTAC in DPBS-Mg, 4 C, 4 h; protein in an extract
[2] = target: M6PR (cell lysate) (UniProt P11717); experiment: streptavidin pull-down; details: DPBS-Mg buffer; 5'-phosphate on strand 1 (T4 DNA ligase step stated); pulldown: cell lysate with LYTAC in DPBS-Mg, 4 C, 4 h; protein in an extract
[3] = tested on: VEGF (HZ-1038, Proteintech); experiment: MST; details: 20 mM CaCl2, 5'-phosphate on strand 1 (T4 DNA ligase step stated), MST: 5 nM Cy5-LYTAC, 20 mM Tris-HCl pH 8.5, 20 mM KCl, 20 mM CaCl2, 0.1% Tween 20, 10 min, temperature not stated, commercial protein
[4] = tested on: GST-M6PR; experiment: MST; details: 5'-phosphate on strand 1 (T4 DNA ligase step stated), MST: 5 nM Cy5-LYTAC, 20 mM Tris-HCl pH 8.5, 20 mM KCl, 20 mM CaCl2, 0.1% Tween 20, 10 min, temperature not stated, protein in a lysate after overexpression, protein details: GST

Sequence | binding result [1] | binding result [2] | binding result ([3]; Kd only in figure) | binding result ([4]; Kd only in figure, 20 mM CaCl2) | binding result ([3]; minimal binding) | binding result ([4]; binds, weaker than V5 and V6, 20 mM CaCl2)
CCCCCACACGTAAATCAGTCATAGGGCGCGTAGATGACGAGCAGTCCTAACATCGTTTAGGAC / TATGACTGATTTACGTGTGGGGGGCCCGTCTTCCAGACAAGAGTGCAGGGC [V6 (M6PR-A / VEGF-A3 LYTAC)] | binds | binds | binds | binds | – | –
CCCCCACACGTAAATCAGTCATAGGGCGCGTAGATGACGAGCAGTCCTAACATCGTTTAGGAC / TATGACTGATTTACGTGTGGGGGTGGACTGGGTGGGTACCC [V4 (M6PR-A / VEGF-A1 LYTAC)] | – | – | – | – | binds more weakly | binds more weakly
CCCCCACACGTAAATCAGTCATAGGGCGCGTAGATGACGAGCAGTCCTAACATCGTTTAGGAC / TATGACTGATTTACGTGTGGGGGTGTGGGGGTGGACGGGCCGGGTAGA [V5 (M6PR-A / VEGF-A2 LYTAC)] | binds | binds | – | binds | – | –

For part of these data: A weaker result is weaker than the reference pair of the same experiment. For at least one entry, the source does not settle the construct or the ends of the probe. For part of these data: At least one result comes from cells or an extract, where the contact may be indirect. For part of these data: At least one verdict rests on a figure or table, not on a statement of the authors.
